Results taken from the supplement of paper PMC10849652.
Some of the results follow.

Chains of the proteins cited; added tags and fusions are not shown. Lines headed by an entry give the natural chain unless they say otherwise; changes in a name come on top.
UniProt Q86V97: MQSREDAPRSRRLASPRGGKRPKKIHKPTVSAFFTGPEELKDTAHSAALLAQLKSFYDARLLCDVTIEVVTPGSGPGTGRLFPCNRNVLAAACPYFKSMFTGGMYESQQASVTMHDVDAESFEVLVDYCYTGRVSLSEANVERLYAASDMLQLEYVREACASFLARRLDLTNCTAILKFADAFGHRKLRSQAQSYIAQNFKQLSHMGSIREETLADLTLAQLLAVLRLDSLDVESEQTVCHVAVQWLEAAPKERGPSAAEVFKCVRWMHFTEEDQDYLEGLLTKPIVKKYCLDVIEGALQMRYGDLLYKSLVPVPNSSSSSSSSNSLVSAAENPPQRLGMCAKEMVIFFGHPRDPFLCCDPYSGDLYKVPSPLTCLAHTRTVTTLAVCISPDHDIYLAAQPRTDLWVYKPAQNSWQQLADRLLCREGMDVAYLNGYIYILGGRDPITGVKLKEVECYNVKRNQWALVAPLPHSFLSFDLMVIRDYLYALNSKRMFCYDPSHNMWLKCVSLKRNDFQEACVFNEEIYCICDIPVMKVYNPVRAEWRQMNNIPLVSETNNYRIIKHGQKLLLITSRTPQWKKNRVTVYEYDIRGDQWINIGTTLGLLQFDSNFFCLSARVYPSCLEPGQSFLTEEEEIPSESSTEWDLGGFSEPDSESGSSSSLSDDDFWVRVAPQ
UniProt Q8WZ19: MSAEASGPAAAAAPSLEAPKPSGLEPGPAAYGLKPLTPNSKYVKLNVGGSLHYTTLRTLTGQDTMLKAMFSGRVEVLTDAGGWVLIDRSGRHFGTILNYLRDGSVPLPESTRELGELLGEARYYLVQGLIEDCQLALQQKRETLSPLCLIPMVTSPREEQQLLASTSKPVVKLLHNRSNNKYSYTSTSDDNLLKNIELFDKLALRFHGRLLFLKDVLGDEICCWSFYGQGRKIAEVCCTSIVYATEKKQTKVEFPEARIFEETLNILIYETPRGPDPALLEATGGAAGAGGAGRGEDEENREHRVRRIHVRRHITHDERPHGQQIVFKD
UniProt Q13352: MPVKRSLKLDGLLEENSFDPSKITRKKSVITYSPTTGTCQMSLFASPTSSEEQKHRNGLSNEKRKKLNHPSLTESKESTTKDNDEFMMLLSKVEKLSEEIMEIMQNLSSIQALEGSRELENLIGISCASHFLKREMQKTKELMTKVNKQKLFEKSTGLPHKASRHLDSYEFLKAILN
UniProt Q8IWB1: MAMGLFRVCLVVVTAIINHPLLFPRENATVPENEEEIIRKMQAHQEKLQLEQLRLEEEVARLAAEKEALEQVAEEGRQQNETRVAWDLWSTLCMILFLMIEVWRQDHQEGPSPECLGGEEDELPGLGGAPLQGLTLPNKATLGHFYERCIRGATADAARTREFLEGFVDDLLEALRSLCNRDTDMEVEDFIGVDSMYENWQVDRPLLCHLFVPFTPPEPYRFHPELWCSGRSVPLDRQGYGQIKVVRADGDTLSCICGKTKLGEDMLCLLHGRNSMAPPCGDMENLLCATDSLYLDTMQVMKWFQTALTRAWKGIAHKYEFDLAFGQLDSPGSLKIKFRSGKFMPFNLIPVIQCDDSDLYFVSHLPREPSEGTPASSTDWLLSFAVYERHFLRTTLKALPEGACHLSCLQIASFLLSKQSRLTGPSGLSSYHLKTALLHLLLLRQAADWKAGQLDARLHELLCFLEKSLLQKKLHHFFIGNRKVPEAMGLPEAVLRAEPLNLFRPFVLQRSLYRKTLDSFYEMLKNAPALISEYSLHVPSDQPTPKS
UniProt Q68DU8: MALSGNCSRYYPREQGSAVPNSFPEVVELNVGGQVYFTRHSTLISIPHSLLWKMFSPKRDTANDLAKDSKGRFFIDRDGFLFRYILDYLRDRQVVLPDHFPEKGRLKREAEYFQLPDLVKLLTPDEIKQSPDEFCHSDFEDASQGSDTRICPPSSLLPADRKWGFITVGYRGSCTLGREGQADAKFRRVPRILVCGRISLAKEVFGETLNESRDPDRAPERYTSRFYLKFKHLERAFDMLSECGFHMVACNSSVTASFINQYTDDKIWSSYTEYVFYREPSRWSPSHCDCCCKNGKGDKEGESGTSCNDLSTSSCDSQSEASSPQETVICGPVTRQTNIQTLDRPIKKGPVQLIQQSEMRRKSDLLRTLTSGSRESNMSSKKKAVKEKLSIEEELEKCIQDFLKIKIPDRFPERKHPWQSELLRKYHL
UniProt P01591, whole entry, looked up: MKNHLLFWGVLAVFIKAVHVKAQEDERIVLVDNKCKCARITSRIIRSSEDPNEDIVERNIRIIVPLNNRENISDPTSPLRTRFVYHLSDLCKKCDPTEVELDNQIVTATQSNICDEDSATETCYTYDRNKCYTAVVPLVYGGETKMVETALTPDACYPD
UniProt P52333: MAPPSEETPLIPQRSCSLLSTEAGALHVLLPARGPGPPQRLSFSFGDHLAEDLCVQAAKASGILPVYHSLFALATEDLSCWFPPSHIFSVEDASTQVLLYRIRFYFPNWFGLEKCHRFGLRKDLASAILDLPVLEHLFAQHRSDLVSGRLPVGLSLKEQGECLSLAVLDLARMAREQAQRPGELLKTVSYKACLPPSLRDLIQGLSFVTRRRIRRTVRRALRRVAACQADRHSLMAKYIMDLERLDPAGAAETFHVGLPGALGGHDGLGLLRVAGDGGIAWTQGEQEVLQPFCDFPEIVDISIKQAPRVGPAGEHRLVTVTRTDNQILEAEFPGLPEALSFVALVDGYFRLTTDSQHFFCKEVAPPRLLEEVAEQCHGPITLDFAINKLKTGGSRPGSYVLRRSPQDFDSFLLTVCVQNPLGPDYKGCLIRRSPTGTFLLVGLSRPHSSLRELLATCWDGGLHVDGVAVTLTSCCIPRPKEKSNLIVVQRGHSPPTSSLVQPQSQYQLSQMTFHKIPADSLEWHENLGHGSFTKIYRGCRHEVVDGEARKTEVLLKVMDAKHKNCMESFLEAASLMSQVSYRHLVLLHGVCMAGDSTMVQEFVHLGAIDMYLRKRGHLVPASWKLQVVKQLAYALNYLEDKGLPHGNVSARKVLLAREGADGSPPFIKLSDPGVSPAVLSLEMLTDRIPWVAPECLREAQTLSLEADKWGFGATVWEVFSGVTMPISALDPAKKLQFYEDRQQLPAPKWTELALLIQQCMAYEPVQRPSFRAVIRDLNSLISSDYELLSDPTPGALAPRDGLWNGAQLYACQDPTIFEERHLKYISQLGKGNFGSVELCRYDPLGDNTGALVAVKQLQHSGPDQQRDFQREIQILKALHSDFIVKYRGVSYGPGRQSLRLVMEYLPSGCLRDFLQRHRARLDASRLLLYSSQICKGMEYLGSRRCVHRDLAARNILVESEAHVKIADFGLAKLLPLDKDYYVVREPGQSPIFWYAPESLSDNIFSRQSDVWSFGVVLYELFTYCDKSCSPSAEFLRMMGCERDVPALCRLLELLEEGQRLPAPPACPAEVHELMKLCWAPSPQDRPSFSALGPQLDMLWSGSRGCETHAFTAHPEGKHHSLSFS
UniProt Q00978: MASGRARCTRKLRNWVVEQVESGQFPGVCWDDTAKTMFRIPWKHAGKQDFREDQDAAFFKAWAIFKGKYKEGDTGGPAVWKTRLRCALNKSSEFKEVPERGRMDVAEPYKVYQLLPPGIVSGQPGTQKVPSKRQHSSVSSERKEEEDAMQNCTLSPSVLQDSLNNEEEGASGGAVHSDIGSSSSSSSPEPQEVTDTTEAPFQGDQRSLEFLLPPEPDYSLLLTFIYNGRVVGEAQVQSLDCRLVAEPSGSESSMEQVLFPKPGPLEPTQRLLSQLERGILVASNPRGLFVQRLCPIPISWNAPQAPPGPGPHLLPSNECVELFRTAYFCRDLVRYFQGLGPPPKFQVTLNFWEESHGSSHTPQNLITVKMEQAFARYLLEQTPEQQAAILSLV
UniProt O15554, whole entry, looked up: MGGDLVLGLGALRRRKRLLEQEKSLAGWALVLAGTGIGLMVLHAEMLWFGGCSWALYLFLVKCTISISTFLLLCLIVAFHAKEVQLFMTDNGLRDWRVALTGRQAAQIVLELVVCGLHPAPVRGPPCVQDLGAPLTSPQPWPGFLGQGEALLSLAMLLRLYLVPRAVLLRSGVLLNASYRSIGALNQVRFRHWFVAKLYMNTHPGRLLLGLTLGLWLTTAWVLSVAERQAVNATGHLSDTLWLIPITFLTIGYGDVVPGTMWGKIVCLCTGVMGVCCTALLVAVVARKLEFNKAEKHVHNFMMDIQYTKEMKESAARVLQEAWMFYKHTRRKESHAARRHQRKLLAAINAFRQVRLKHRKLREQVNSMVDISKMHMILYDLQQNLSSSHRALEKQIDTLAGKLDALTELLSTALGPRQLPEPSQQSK
UniProt Q9NQX7: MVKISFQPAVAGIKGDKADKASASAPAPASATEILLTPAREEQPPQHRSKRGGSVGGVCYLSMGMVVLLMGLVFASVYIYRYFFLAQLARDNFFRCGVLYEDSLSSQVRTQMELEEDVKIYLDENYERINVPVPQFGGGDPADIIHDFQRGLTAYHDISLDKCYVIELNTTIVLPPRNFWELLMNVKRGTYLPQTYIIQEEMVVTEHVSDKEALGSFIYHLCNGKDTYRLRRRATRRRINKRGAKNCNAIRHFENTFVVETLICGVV
UniProt Q8NHM5: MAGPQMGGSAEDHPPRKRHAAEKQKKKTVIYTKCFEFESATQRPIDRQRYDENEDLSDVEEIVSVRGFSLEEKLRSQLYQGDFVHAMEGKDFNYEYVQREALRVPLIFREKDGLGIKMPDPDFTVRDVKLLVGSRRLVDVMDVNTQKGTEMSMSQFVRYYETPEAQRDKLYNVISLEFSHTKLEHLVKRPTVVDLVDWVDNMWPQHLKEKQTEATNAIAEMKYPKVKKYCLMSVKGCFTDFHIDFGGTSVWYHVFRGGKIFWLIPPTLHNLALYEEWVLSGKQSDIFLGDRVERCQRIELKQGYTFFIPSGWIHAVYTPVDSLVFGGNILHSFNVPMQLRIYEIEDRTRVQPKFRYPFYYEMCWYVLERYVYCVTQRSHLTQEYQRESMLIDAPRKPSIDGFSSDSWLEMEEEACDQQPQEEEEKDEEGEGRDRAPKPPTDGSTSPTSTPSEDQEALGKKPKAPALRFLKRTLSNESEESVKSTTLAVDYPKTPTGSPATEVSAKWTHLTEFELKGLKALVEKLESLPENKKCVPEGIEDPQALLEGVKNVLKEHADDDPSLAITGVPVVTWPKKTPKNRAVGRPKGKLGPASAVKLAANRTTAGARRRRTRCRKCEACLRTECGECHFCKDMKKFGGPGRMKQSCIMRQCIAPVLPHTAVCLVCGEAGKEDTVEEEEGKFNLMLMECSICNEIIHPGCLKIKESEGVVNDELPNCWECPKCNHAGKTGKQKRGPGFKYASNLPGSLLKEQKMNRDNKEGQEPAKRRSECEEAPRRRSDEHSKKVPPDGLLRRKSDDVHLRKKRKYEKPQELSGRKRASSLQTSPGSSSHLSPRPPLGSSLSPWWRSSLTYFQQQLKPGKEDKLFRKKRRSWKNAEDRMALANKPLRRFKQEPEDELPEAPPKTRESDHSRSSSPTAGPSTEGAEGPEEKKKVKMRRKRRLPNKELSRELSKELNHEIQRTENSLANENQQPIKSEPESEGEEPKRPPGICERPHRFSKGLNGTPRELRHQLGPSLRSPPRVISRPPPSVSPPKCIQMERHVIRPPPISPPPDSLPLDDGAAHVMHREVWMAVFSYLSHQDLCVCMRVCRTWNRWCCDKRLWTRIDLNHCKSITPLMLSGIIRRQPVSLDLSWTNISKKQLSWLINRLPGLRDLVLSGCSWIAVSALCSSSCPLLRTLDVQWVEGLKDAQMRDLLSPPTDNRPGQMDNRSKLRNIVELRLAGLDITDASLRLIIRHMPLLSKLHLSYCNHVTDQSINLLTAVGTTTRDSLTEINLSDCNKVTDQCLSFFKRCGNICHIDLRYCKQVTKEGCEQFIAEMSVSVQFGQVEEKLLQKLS

Experiments:
Assay in all cases: log2 fold change, soluble protein after heating vs DMSO (PISA); higher = thermal stabilisation; K562 lysate, 10 uM; active = over 0.2 and 3.5 SD of the protein, either way, in both replicates (recomputed)
[1] = compound: O=C1NC(=O)C(c2cnc3ccccn23)=C1c1cn2c3c(cc(F)cc13)CN(C(=O)N1CCCCC1)CC2
Method in brief: (§1)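 To prepare the extract, K562 pellets were dounce-homogenised in PBS pH 7.4 with 1 mM MgCl2, giving crude material at 1 mg/mL protein. This was treated with 10 μM compound for 30 min, then heated in aliquots for 3 min over 48°C-58°C before pooling and addition of NP-40 to 0.5% at 4°C. Centrifugation at 21,000xg for 90 min left soluble protein in the supernatant, which TMTpro 16plex LC-MS/MS quantified with equalised channel sums. Results are log-two fold changes in thermal stability compared with solvent controls, from duplicates.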

vorinostat = compound: O=C(CCCCCCC(=O)Nc1ccccc1)NO [vorinostat]
Method in brief: as §1

silmitasertib = compound: O=C(O)c1ccc2c(c1)nc(Nc1cccc(Cl)c1)c1ccncc12 [silmitasertib]
Method in brief: as §1

[2] = compound: NCC(=O)Nc1ccc(-n2nc(C(F)(F)F)cc2-c2ccc3c(ccc4ccccc43)c2)cc1
Method in brief: as §1

entospletinib = compound: c1cn2cc(-c3ccc4cn[nH]c4c3)nc(Nc3ccc(N4CCOCC4)cc3)c2n1 [entospletinib]
Method in brief: as §1

KBTBD6 (UniProt Q86V97)
log2 fold change [1]: inactive: -0.105

KCTD13 (UniProt Q8WZ19)
log2 fold change (vorinostat): inactive: -0.193 | log2 fold change (silmitasertib): inactive: 0.163 | log2 fold change [1]: inactive: 0.004

ITGB3BP isoform 5 (UniProt Q13352)
log2 fold change [1]: inactive: -0.263

ITPRIP (UniProt Q8IWB1)
log2 fold change (vorinostat): inactive: -0.33 | log2 fold change (silmitasertib): inactive: 0.095

KCTD16 (UniProt Q68DU8)
log2 fold change [1]: inactive: 0.047

JCHAIN (UniProt P01591)
log2 fold change (vorinostat): inactive: 0.033 | log2 fold change (silmitasertib): inactive: 0.027 | log2 fold change [1]: inactive: 0.538

JAK3 (UniProt P52333)
log2 fold change [2]: inactive: -0.319 | log2 fold change [1]: inactive: -0.002

JADE2 (UniProt Q9NQC1)
log2 fold change (entospletinib): inactive: 0.073

NA (UniProt J3KR12)
log2 fold change [2]: inactive: 0.143 | log2 fold change (entospletinib): inactive: -0.136

IRF9 (UniProt Q00978)
log2 fold change (vorinostat): inactive: -0.148 | log2 fold change (silmitasertib): inactive: 0.055

ITPR1 (UniProt Q14643)
log2 fold change [2]: inactive: 0 | log2 fold change [1]: inactive: -0.126 | log2 fold change (entospletinib): inactive: 0.162

KCNN4 (UniProt O15554)
log2 fold change (vorinostat): inactive: 0.215 | log2 fold change (silmitasertib): inactive: 0.122 | log2 fold change [1]: inactive: -0.107

ITM2C (UniProt Q9NQX7)
log2 fold change (vorinostat): inactive: 0.053 | log2 fold change (silmitasertib): inactive: -0.019 | log2 fold change [1]: inactive: -0.022 | log2 fold change (entospletinib): inactive: 0.004

ITIH2 (UniProt P19823)
log2 fold change [2]: inactive: 0.04 | log2 fold change [1]: inactive: 0.027 | log2 fold change (entospletinib): inactive: -0.023

KALRN (UniProt O60229)
log2 fold change [1]: inactive: -0.042

KDM2B (UniProt Q8NHM5)
log2 fold change (vorinostat): inactive: 0.143 | log2 fold change (silmitasertib): inactive: -0.083 | log2 fold change [1]: inactive: -0.256 | log2 fold change (entospletinib): inactive: -0.131
